In patent US20080207645A1, “Pyridothienopyrimidine Derivatives” (priority 2004, published 2008):
Some results were stated once for a whole list of compounds, not compound by compound. For at least one compound, name, drawing or mass did not settle the structure.

test system: PDE4; assay: PDE4 Assay Procedure ([3H]-cAMP SPA); type: biochemical
Procedure: Compounds to be tested were resuspended in DMSO at a stock concentration of 1 mM. […] These dilutions were done in 96-well plates. In some cases, plates containing diluted compounds were frozen before being assayed. In these cases, the plates were thawed at room temperature and stirred for 15 minutes.
Ten microliters of the diluted compounds were poured into a “low binding” assay plate. […] The reaction was initiated by adding ten microliters of a solution containing PDE4. The plate was then incubated under stirring for 1 hour at room temperature. After incubation the reaction was stopped with 50 microlitres of SPA beads, and the reaction was allowed to incubate for another 20 minutes at room temperature before measuring radioactivity using standard instrumentation.
The reaction mixture was prepared by adding 90 ml of H2O to 10 ml of 10× assay buffer (500 mM Tris pH 7.5, 83 mM MgCl2, 17 mM EGTA), and 40 microlitres 1 μCi/μL [3H]-cAMP. SPA beads solution was prepared by adding 500 mg to […] H2O for a final concentration of 20 mg/ml beads and 18 mM zinc sulphate.

Compound	activity as inhibitors of phosphodiesterase 4
CCN(CC)CCCNc1ncnc2c1sc1nc(N3CCOCC3)c3c(c12)CC(C)(C)OC3 [Example 7, 2,2-Dimethyl-5-morpholin-4-yl-N-(3-diethylaminopropyl)-1,4-dihydro-2H-pyrano[4″,3″:4′,5′]pyrido[3′,2′:4,5]thieno[3,2-d]pyrimidin-8-amine]	showing activity as inhibitors of phosphodiesterase 4
CN(C)CCCNc1ncnc2c1sc1nc(N3CCCC3)c3c(c12)CC(C)(C)OC3 [Example 30, 2,2-Dimethyl-5-pyrrolidin-1-yl-N-(3-dimethylaminopropyl)-1,4-dihydro-2H-pyrano[4″,3″:4′,5′]pyrido[3′,2′:4,5]thieno[3,2-d]pyrimidin-8-amine]	showing activity as inhibitors of phosphodiesterase 4
CC1(C)Cc2c(c(N3CCCC3)nc3sc4c(NCc5ccccn5)ncnc4c23)CO1 [Example 41, 2,2-dimethyl-N-(pyridin-2-ylmethyl)-5-pyrrolidin-1-yl-1,4-dihydro-2H-pyrano[4″,3″:4′,5′]pyrido′[3′,2′:4,5]thieno[3,2-d]pyrimidin-8-amine]	showing activity as inhibitors of phosphodiesterase 4
CC1(C)Cc2c(c(N3CCOCC3)nc3sc4c(N)ncnc4c23)CO1 [Example 13, 2,2-Dimethyl-5-morpholin-4-yl-1,4-dihydro-2H-pyrano[4″,3″:4′,5′]pyrido[3′,2′:4,5]thieno[3,2-d]pyrimidin-8-amine]	showing activity as inhibitors of phosphodiesterase 4
CCCCN(C)c1ncnc2c1sc1nc(N3CCOCC3)c3c(c12)CC(C)(C)OC3 [Example 4, 2,2-Dimethyl-5-morpholin-4-yl-N-butyl-N-methyl-1,4-dihydro-2H-pyrano[4″,3″:4′,5′]pyrido[3′,2′:4,5]thieno[3,2-d]pyrimidin-8-amine]	showing activity as inhibitors of phosphodiesterase 4
CC1(C)Cc2c(c(N3CCCC3)nc3sc4c(NCc5cccnc5)ncnc4c23)CO1 [Example 40, 2,2-dimethyl-N-(pyridin-3-ylmethyl)-5-pyrrolidin-1-yl-1,4-dihydro-2H-pyrano[4″,3″:4′,5′]pyrido[3′,2′:4,5]thieno[3,2-d]pyrimidin-8-amine]	showing activity as inhibitors of phosphodiesterase 4
CC(CCc1ccccc1)Nc1ncnc2c1sc1nc(N3CCOCC3)c3c(c12)CC(C)(C)OC3 (stereo not shown) [Example 21, 2,2-Dimethyl-N-(1-methyl-3-phenylpropyl)-5-morpholin-4-yl-1,4-dihydro-2H-pyrano[4″,3″:4′,5′]pyrido[3′,2′:4,5]thieno[3,2-d]pyrimidin-8-amine]	showing activity as inhibitors of phosphodiesterase 4
CC(C)c1nc2sc3c(NCc4ccccn4)ncnc3c2c2c1COC(C)(C)C2 [Example 46, 2,2-Dimethyl-5-isopropyl-N-(pyridin-2-ylmethyl)-1,4-dihydro-2H-pyrano[4″,3″:4′,5′]pyrido[3′,2′:4,5]thieno[3,2-d]pyrimidin-8-amine]	showing activity as inhibitors of phosphodiesterase 4
CC1(C)Cc2c(c(-c3ccco3)nc3sc4c(NCc5ccco5)ncnc4c23)CO1 [Example 43, 5-(2-Furyl)-N-(2-furylmethyl)-2,2-dimethyl-1,4-dihydro-2H-pyrano[4″,3″:4′,5′]pyrido[3′,2′:4,5]thieno[3,2-d]pyrimidin-8-amine]	showing activity as inhibitors of phosphodiesterase 4
CCOc1ccccc1CCNc1ncnc2c1sc1nc(N3CCOCC3)c3c(c12)CC(C)(C)OC3 [Example 1, 2,2-Dimethyl-5-morpholin-4-yl-N-(2-phenetylethyl)-1,4-dihydro-2H-pyrano[4″,3″:4′,5′]pyrido[3′,2′:4,5]thieno[3,2-d]pyrimidin-8-amine]	showing activity as inhibitors of phosphodiesterase 4
CC1(C)Cc2c(c(N3CCOCC3)nc3sc4c(N(CCO)Cc5ccccc5)ncnc4c23)CO1 [Example 33, 2,2-Dimethyl-5-morpholin-4-yl-N-(2-hydroxyethyl)-N-benzyl-1,4-dihydro-2H-pyrano[4″,3″:4′,5′]pyrido[3′,2′:4,5]thieno[3,2-d]pyrimidin-8-amine]	showing activity as inhibitors of phosphodiesterase 4
CC1(C)Cc2c(c(N3CCOCC3)nc3sc4c(NCc5ccccn5)ncnc4c23)CO1 [Example 37, 2,2-dimethyl-5-morpholin-4-yl-N-(pyridin-2-ylmethyl)-1,4-dihydro-2H-pyrano[4″,3″:4′,5′]pyrido[3′,2′:4,5]thieno[3,2-d]pyrimidin-8-amine]	showing activity as inhibitors of phosphodiesterase 4
CC(CCc1ccccc1)Nc1ncnc2c1sc1nc(N3CCCC3)c3c(c12)CC(C)(C)OC3 (stereo not shown) [Example 32, 2,2-Dimethyl-N-(1-methyl-3-phenylpropyl)-5-pyrrolidin-1-yl-1,4-dihydro-2H-pyrano[4″,3″:4′,5′]pyrido[3′,2′:4,5]thieno[3,2-d]pyrimidin-8-amine]	showing activity as inhibitors of phosphodiesterase 4
CCCCNc1ncnc2c1sc1nc(N3CCOCC3)c3c(c12)CC(C)(C)OC3 [Example 6, 2,2-Dimethyl-5-morpholin-4-yl-N-butyl-1,4-dihydro-2H-pyrano[4″,3″:4′,5′]pyrido[3′,2′:4,5]thieno[3,2-d]pyrimidin-8-amine]	showing activity as inhibitors of phosphodiesterase 4
CC1(C)Cc2c(c(N3CCOCC3)nc3sc4c(NCc5cccnc5)ncnc4c23)CO1 [Example 36, 2,2-dimethyl-5-morpholin-4-yl-N-(pyridin-3-ylmethyl)-1,4-dihydro-2H-pyrano[4″,3″:4′,5′]pyrido[3′,2′:4,5]thieno[3,2-d]pyrimidin-8-amine]	showing activity as inhibitors of phosphodiesterase 4
CCCCc1nc2sc3c(NCCN4CCOCC4)ncnc3c2c2c1COC(C)(C)C2 [Example 17, 2,2-Dimethyl-5-butyl-4-yl-N-(2-morpholin-4-ylethyl)-1,4-dihydro-2H-pyrano[4″,3″:4′,5′]pyrido[3′,2′:4,5]thieno[3,2-d]pyrimidin-8-amine]	showing activity as inhibitors of phosphodiesterase 4
CC(C)CCNc1ncnc2c1sc1nc(N3CCCC3)c3c(c12)CC(C)(C)OC3 [Example 31, 2,2-Dimethyl-5-pyrrolidin-1-yl-N-isopentyl-1,4-dihydro-2H-pyrano[4″,3″:4′,5′]pyrido[3′,2′:4,5]thieno[3,2-d]pyrimidin-8-amine]	showing activity as inhibitors of phosphodiesterase 4
CC1(C)Cc2c(c(N3CCOCC3)nc3sc4c(N5CCOCC5)ncnc4c23)CO1 [Example 8, 2,2-Dimethyl-5,8-dimorpholin-4-yl-1,4-dihydro-2H-pyrano[4″,3″:4′,5′]pyrido[3′,2′:4,5]thieno[3,2-d]pyrimidine]	showing activity as inhibitors of phosphodiesterase 4
CC1(C)Cc2c(c(N3CCOCC3)nc3sc4c(NCCCN5CCOCC5)ncnc4c23)CO1 [Example 50, 2,2-Dimethyl-5-morpholin-4-yl-N-(3-morpholin-4-ylpropyl)-1,4-dihydro-2H-pyrano[4″,3″:4′,5′]pyrido[3′,2′:4,5]thieno[3,2-d]pyrimidin-8-amine]	showing activity as inhibitors of phosphodiesterase 4
